PubChem BioAssay AID504786 – Drosophila RNAi Screening Center – 2011
Purpose: 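Positive regulators of HIF-driven reporter output in Drosophila cells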 (primary screen). System: Drosophila S2 cells with a stable HIF luciferase reporter. Knock-down reagent: long dsRNA against Drosophila genes, about 0.2 µg dsRNA per well of a 384-well plate. Time to read-out: three days of knock-down, then 20 h of DFO before reading. Treatment: desferrioxamine (DFO) at 100 µM, an iron chelator that mimics hypoxia, for 20 h. Measured: 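Firefly luciferase driven by the mouse ldh-a hypoxia-response element, measured after 20 h of 100 µM DFO; z-scores per plate, higher means more signal lost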. Reading the numbers: z-score: higher = stronger loss of HIF reporter signal.
The screen tested about 21,000 reagents; this is a random part of those that have a named target and a result. 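Primary screen; positive scores mean lost reporter signal, so the sign may be inverted from the usual convention.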 The numbers tell different reagents against one gene apart. A plus sign joins genes that one reagent is predicted to hit. Not all columns of the deposit are shown.

| predicted target | reagent | z-score, replicate 1 | z-score, replicate 2 |
| --- | --- | --- | --- |
| CG10959 (GeneID 31743) | 1 | -0.1 | 0 |
| hfp (GeneID 38173) | 1 | 1.4 | 3.4 |
| hfp (GeneID 38173) | 2 | -0.2 | 1 |
| RanBPM (GeneID 36102) | 1 | -0.4 | -0.8 |
| CG14411 (GeneID 32408) | 1 | -0.3 | -0.5 |
| CG18545 (GeneID 41264) | 1 | -0.4 | -0.7 |
| Tsf1 (GeneID 32821) | 1 | -0.4 | -0.4 |
| CG8960 (GeneID 38280) | 1 | -0.2 | -0.4 |
| CG8611 (GeneID 32725) | 1 | -0.1 | -0.2 |
| CG10053 (GeneID 40871) | 1 | -0.4 | -0.4 |
| Sgf11 (GeneID 40035) | 1 | -0.5 | -0.4 |
| vex (GeneID 32033) | 1 | -0.3 | -0.8 |
| vex (GeneID 32033) | 2 | -0.2 | -0.6 |
| Hpr1 (GeneID 40723) | 1 | -0.4 | 0.3 |
| nec (GeneID 45908) | 1 | -0.3 | -0.4 |
| Fancm (GeneID 42543) | 1 | -0.1 | 0.1 |
| CG31974 (GeneID 33174) | 1 | -0.2 | -0.2 |
| Cyp6a19 (GeneID 36662) | 1 | -0.2 | -0.3 |
| CG30020 (GeneID 36156) | 1 | 1.2 | 0.7 |
| CG30020 (GeneID 36156) | 2 | 1 | 1.3 |
| CG8490 (GeneID 36338) | 1 | -0.1 | -0.3 |
| CG17734 (GeneID 41359) | 1 | -0.4 | -0.7 |
| CG5160 (GeneID 34015) | 1 | -0.4 | 0.2 |
| CG6766 (GeneID 34619) | 1 | -0.2 | -0.8 |
| CG18808 (GeneID 59169) | 1 | -0.2 | 0.6 |
| mAcon2 (GeneID 41326) | 1 | -0.3 | 0.3 |
| Sytbeta (GeneID 39630) | 1 | -0.3 | -0.4 |
| Sytbeta (GeneID 39630) | 2 | -0.3 | -0.2 |
| CG8064 (GeneID 42196) | 1 | -0.1 | 0.8 |
| CG8188 (GeneID 32751) | 1 | -0.3 | -0.5 |
| LysB (GeneID 38125) | 1 | -0.3 | -0.3 |
| CG14118 (GeneID 39465) | 1 | -0.3 | -0.2 |
| Bx (GeneID 32846) | 1 | 2.9 | 2.6 |
| CG18542 + CG32939 | 1 | -0.4 | -0.6 |
| dpr19 (GeneID 34408) | 1 | -0.1 | -0.3 |
| CG32486 (GeneID 38367) | 1 | -0.4 | -0.3 |
| CG32486 (GeneID 38367) | 2 | -0.4 | -0.2 |
| CG14054 (GeneID 31172) | 1 | -0.2 | -0.2 |
| CG6661 (GeneID 39556) | 1 | -0.2 | -0.3 |
| CR12798 (GeneID 10178819) | 1 | 0.2 | 0.4 |
| lsn (GeneID 42572) | 1 | -0.3 | -0.6 |
| CG15483 (GeneID 34687) | 1 | -0.2 | -0.3 |
| CG13575 (GeneID 37883) | 1 | 0 | -0.1 |
| CG3328 (GeneID 37871) | 1 | -0.2 | -0.5 |
| CG32625 (GeneID 318128) | 1 | -0.1 | 0 |
| CG13896 (GeneID 38089) | 1 | -0.4 | -0.6 |
| sbm (GeneID 32397) | 1 | -0.2 | -0.3 |
| CG33303 (GeneID 2768916) | 1 | 0.2 | 0.4 |
| Usp1 (GeneID 43462) | 1 | -0.3 | -0.2 |
| CG18659 (GeneID 35929) | 1 | -0.4 | -0.2 |
| CG11149 (GeneID 33800) | 1 | 0 | -0.1 |
| phtm (GeneID 32857) | 1 | -0.4 | -0.6 |
| CG31778 (GeneID 261616) | 1 | -0.2 | 0.2 |
| CG10909 (GeneID 41581) | 1 | -0.1 | 0 |
| kis (GeneID 33185) | 1 | -0.3 | -0.4 |
| kis (GeneID 33185) | 2 | 1.6 | 2 |
| kis (GeneID 33185) | 3 | 1 | 1.7 |
| CG3760 (GeneID 37987) | 1 | -0.2 | -0.3 |
| wcy (GeneID 32690) | 1 | 0.2 | 0.8 |
| Hsp60D (GeneID 34763) | 1 | -0.4 | -0.5 |
| Paris (GeneID 33657) | 1 | -0.3 | 0 |
| CR41501 (GeneID 5740839) | 1 | 0.1 | 0.1 |
| CG30037 (GeneID 246409) | 1 | -0.1 | -0.1 |
| CG8892 (GeneID 33719) | 1 | -0.3 | -0.4 |
| Zmynd8 (GeneID 43730) | 1 | 0 | -0.6 |
| Ubx (GeneID 42034) | 1 | -0.5 | -0.5 |
| Wdfy2 (GeneID 34425) | 1 | -0.3 | -0.5 |
| CG8635 (GeneID 35850) | 1 | -0.4 | -0.3 |
| eyg (GeneID 39419) | 1 | 3.3 | 1.7 |
| CG11843 (GeneID 43432) | 1 | -0.4 | -0.5 |
| trc (GeneID 40165) | 1 | -0.1 | 0.4 |
| qkr58E-1 (GeneID 37561) | 1 | -0.2 | -0.7 |
| CG3955 (GeneID 36438) | 1 | -0.2 | 0 |
| Mur89F (GeneID 42080) | 1 | -0.3 | -0.7 |
| qjt (GeneID 39952) | 1 | -0.2 | -0.1 |
| CG8560 (GeneID 38830) | 1 | -0.4 | -0.9 |
| CG10005 (GeneID 41451) | 1 | -0.1 | -0.5 |
| MRP (GeneID 34686) | 1 | -0.3 | -0.6 |
| CaMKII (GeneID 43828) | 1 | -0.4 | 1.1 |
| CG5793 (GeneID 42505) | 1 | 0.1 | -0.4 |
| GstE14 (GeneID 36467) | 1 | -0.4 | -0.2 |
| cpo (GeneID 45840) | 1 | -0.5 | -0.1 |
| Cse1 (GeneID 35016) | 1 | 2.1 | 1.7 |
